For two molecules, binding results are on record in publication doi:10.1101/2025.11.23.690026.

Amino acid sequences for entries named in this document (tags omitted). A change or cut given only in a name is not applied to a line headed by its entry.
UniProt P22082: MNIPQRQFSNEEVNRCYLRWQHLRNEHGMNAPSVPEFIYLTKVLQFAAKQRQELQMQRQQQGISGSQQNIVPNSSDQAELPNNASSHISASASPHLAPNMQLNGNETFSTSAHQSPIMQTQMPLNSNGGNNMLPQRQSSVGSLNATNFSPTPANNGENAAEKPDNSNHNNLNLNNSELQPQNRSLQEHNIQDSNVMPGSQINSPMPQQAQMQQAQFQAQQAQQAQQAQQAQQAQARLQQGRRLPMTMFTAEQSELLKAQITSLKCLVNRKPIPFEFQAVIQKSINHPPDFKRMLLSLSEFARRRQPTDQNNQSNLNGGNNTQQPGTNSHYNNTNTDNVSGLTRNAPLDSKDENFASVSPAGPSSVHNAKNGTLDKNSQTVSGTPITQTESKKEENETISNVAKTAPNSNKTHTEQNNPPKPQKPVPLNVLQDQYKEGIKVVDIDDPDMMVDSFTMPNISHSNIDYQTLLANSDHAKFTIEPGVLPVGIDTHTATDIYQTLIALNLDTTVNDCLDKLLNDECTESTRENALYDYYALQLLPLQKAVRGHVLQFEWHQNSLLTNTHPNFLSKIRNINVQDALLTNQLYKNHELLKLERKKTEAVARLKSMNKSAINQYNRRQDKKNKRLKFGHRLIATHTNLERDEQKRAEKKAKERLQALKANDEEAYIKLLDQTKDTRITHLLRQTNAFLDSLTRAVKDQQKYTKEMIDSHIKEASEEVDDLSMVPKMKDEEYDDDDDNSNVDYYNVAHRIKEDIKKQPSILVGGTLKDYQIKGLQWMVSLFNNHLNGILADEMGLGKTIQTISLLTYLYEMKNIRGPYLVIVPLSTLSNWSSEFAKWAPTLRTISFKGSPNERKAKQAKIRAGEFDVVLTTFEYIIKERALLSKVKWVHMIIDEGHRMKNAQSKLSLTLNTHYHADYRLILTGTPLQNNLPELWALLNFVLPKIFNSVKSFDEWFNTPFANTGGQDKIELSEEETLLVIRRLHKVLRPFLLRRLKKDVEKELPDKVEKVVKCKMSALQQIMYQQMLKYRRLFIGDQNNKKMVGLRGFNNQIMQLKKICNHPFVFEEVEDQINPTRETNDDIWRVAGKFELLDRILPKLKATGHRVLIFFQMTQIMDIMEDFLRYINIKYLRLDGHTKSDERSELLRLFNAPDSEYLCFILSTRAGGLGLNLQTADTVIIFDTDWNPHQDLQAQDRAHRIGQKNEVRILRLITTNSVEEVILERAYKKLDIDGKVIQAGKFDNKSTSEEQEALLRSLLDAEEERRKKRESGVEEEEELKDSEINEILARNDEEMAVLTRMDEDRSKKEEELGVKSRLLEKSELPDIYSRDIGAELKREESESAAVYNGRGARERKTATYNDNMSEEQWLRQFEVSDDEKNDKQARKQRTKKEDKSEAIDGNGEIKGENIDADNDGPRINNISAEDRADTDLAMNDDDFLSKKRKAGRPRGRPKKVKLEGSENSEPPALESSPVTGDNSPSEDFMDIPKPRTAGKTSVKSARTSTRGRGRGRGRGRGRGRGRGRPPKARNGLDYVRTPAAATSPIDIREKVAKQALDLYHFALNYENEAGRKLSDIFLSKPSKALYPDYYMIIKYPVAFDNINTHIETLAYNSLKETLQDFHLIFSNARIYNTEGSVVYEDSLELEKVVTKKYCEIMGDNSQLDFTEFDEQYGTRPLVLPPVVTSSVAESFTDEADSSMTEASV
UniProt P04050: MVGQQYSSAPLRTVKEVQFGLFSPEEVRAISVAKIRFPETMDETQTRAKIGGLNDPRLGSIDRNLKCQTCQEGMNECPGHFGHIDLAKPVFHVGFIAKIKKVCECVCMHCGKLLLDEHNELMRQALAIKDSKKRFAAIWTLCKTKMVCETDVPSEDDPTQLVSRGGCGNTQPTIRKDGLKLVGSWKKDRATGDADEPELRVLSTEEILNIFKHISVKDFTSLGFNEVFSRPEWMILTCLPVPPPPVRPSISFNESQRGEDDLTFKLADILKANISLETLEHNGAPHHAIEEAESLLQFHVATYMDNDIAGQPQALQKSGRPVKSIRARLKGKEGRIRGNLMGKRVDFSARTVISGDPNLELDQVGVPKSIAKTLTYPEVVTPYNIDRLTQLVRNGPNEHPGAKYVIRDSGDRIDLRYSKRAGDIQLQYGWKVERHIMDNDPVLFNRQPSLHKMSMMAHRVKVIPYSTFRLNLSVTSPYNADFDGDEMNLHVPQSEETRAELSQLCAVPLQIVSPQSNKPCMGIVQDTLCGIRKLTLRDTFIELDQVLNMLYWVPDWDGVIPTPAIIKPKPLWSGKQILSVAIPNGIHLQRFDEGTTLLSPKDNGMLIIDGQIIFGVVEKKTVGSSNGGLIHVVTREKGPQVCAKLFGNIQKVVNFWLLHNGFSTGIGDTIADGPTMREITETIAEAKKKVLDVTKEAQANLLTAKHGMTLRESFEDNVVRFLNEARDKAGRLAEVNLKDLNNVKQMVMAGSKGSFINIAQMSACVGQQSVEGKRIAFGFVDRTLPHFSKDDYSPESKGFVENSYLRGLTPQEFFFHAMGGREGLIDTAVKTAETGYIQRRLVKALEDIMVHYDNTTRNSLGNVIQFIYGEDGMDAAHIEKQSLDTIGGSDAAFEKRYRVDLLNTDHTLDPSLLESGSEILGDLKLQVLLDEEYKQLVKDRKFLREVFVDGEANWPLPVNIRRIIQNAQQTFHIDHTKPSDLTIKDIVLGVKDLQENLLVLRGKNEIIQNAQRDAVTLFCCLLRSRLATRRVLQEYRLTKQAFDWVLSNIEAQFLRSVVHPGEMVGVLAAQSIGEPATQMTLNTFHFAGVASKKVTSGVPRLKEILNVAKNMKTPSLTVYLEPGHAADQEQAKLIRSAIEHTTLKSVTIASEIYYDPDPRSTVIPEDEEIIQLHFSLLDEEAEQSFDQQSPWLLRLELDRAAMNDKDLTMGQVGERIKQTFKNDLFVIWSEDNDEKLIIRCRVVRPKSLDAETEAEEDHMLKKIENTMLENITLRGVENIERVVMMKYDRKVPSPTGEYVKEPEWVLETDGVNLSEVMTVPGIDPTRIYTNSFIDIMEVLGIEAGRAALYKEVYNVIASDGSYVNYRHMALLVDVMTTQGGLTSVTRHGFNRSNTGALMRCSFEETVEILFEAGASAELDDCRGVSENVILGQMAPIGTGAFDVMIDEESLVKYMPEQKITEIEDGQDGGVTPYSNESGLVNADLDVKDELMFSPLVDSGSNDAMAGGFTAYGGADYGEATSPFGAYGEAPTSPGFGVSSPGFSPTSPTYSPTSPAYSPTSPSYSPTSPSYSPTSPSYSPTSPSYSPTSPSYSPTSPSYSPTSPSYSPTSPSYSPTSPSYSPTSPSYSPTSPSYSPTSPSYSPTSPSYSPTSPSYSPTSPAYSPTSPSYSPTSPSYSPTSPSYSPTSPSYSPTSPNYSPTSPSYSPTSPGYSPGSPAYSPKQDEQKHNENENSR

These are yes or no findings as the source states them, for the method shown. A result given as binding can be weak or reduced; the word gives no strength. For some assays here: In cells and extracts the contact can be indirect.

Test [1] addresses T1, Set1 1-754 (S. cerevisiae) (UniProt P38827).
T1 sequence: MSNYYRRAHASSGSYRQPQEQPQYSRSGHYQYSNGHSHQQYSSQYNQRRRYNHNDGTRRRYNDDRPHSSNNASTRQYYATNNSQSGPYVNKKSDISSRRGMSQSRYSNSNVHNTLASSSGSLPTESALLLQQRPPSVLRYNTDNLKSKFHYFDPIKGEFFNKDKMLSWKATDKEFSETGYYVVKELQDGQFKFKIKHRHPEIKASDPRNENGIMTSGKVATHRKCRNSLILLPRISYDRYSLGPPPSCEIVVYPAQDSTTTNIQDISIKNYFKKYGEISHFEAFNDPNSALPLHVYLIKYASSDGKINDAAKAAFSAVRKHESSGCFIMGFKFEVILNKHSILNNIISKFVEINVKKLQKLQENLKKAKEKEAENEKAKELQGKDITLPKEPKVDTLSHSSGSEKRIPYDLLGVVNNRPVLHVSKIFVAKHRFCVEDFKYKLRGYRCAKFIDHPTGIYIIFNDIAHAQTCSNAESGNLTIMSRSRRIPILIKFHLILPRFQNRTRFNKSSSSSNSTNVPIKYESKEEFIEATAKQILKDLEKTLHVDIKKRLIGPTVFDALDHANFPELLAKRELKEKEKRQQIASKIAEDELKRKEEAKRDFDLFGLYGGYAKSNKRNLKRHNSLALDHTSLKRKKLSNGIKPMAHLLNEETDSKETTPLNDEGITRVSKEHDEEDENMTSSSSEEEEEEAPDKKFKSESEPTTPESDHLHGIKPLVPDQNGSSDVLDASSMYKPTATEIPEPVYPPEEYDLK
The test is described as follows: two-hybrid.

Test [2] deals with Snf2ΔRG-Myc (S. cerevisiae) (UniProt P22082). The experiment in a line: co-IP.

As to “CTD of Rpb1 (from UniProt P04050) (domain or fragment)”, in test [1], the binding result is on record as “binds”.

B1: Set1 (endogenous) (protein, UniProt P38827 1-1080)
chain: MSNYYRRAHASSGSYRQPQEQPQYSRSGHYQYSNGHSHQQYSSQYNQRRRYNHNDGTRRRYNDDRPHSSNNASTRQYYATNNSQSGPYVNKKSDISSRRGMSQSRYSNSNVHNTLASSSGSLPTESALLLQQRPPSVLRYNTDNLKSKFHYFDPIKGEFFNKDKMLSWKATDKEFSETGYYVVKELQDGQFKFKIKHRHPEIKASDPRNENGIMTSGKVATHRKCRNSLILLPRISYDRYSLGPPPSCEIVVYPAQDSTTTNIQDISIKNYFKKYGEISHFEAFNDPNSALPLHVYLIKYASSDGKINDAAKAAFSAVRKHESSGCFIMGFKFEVILNKHSILNNIISKFVEINVKKLQKLQENLKKAKEKEAENEKAKELQGKDITLPKEPKVDTLSHSSGSEKRIPYDLLGVVNNRPVLHVSKIFVAKHRFCVEDFKYKLRGYRCAKFIDHPTGIYIIFNDIAHAQTCSNAESGNLTIMSRSRRIPILIKFHLILPRFQNRTRFNKSSSSSNSTNVPIKYESKEEFIEATAKQILKDLEKTLHVDIKKRLIGPTVFDALDHANFPELLAKRELKEKEKRQQIASKIAEDELKRKEEAKRDFDLFGLYGGYAKSNKRNLKRHNSLALDHTSLKRKKLSNGIKPMAHLLNEETDSKETTPLNDEGITRVSKEHDEEDENMTSSSSEEEEEEAPDKKFKSESEPTTPESDHLHGIKPLVPDQNGSSDVLDASSMYKPTATEIPEPVYPPEEYDLKYSQTLSSMDLQNAIKDEEDMLILKQLLSTYTPTVTPETSAALEYKIWQSRRKVLEEEKASDWQIELNGTLFDSELQPGSSFKAEGFRKIADKLKINYLPHRRRVHQPLNTVNIHNERNEYTPELCQREESSNKEPSDSVPQEVSSSRDNRASNRRFQQDIEAQKAAIGTESELLSLNQLNKRKKPVMFARSAIHNWGLYALDSIAAKEMIIEYVGERIRQPVAEMREKRYLKNGIGSSYLFRVDENTVIDATKKGGIARFINHCCDPNCTAKIIKVGGRRRIVIYALRDIAASEELTYDYKFEREKDDEERLPCLCGAPNCKGFLN
Regarding B1, the binding entry in test [2] is “binds”.
